Experimental data as given in PubChem BioAssay AID1671190 (National Center for Advancing Translational Sciences (NCATS), 2021).
In all, about 580,000 compounds went through this assay and about 6,100 (1.1%) were called active. The inconclusive results got no clear call from the source; some entries with a clear call stand among them for comparison. Calls come from the whole dose curve; as a rule, active = well fitted inhibition curve with a large enough effect; inconclusive = small, poorly fitted or top-dose-only effect, or another doubt; inactive = no such curve, though single readings can be large or run the other way. Potencies beside an inconclusive call are fits to weak or partial responses and may not hold up.

By UniProt entry, the sequences of proteins in these tests, tags left out. Where a name states a change or a piece, a line headed by the entry shows the natural chain unless it says otherwise.
UniProt P18054: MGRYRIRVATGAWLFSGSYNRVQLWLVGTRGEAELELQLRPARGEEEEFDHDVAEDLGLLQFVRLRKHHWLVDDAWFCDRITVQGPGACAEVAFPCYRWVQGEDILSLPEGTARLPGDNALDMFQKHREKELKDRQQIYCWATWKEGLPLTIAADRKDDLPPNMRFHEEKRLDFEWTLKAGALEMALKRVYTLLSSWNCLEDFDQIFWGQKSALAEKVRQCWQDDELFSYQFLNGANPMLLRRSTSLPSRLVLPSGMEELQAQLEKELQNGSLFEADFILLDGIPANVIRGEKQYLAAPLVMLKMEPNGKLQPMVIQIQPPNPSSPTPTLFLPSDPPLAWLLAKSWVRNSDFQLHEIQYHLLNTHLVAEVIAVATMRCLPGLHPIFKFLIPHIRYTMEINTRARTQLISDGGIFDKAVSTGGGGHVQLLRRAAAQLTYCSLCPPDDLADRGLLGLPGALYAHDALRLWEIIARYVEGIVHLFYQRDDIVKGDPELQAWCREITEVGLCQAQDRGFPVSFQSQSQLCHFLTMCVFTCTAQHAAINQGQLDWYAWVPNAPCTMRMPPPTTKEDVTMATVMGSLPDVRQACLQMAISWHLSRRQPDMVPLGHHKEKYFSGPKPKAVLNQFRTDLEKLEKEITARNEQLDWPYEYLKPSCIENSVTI

Biological target: Polyunsaturated fatty acid lipoxygenase ALOX12 (Homo sapiens) (UniProt P18054)
Experiment: Primary qHTS assay for inhibitors of human arachidonate 12S-lipoxygenase (ALOX12): Round 2
Conditions: purified 12hLO, xylenol orange hydroperoxide absorbance; activity change, negative = inhibition: at 108 µM (top of the series) unless noted
Summary of the method: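 Purified human 12hLO (150 nM final) in 25 mM Hepes, 0.01% Triton X-100, pH 7.0 was preincubated 15 min at room temperature with compound. Then 40 uM arachidonic acid was added, 30 min. Hydroperoxide was read by Fe-XO absorbance ratio 573/405 nm.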
% is set by controls: 0 for no effect and ±100 for the full control effect; potency is the fitted concentration of half-maximal effect.

| SMILES | activity change, negative = inhibition | Potency |
| --- | --- | --- |
| CC(C)CCC(=O)N1CCC2(CC1)CC(O)CCO2 (stereo unspecified) | inactive: 39.9% | – |
| CCOc1ccc(CC(=O)Nc2cccc3cccnc23)cc1 | inactive: 12.5% | – |
| CCOC(=O)c1cc2cc(Oc3ccccc3)ccc2[nH]1 | – | inconclusive: 141 µM [inhibitor, single point] |
| CCN(CC)C1CC(=O)N(c2ccc(Br)cc2)C1=O (stereo unspecified) | – | inconclusive: 44.7 µM [inhibitor, partial curve, poor fit] |
| CN(Cc1ccccc1)Cc1nc2c(n1Cc1ccccc1)C(=O)N(Cc1ccccc1C#N)CCN2 | inactive: 24.1% | – |
| Cc1ccc(C)c2[nH]c(=O)c(CCNC(=O)c3ccc(S(=O)(=O)N4CCOCC4)cc3)cc12 | – | inconclusive: 50.1 µM [inhibitor, partial curve, poor fit] |
| Cc1cc(C)nc(SCC(=O)Nc2nc(-c3ccccc3)c(-c3ccccc3)o2)n1 | inactive: 10.9% | – |
| CC(C)[C@H](NC(=O)c1ccc(F)cc1)C(=O)NC1=NCCS1 | – | inconclusive: 112 µM [inhibitor, single point] |
| COc1ccc(N=C/C=C2\C=C(c3ccccc3)OC(C)(C)O2)cc1 | inactive: -40.1% | – |
| CCOc1ccc(N(CC(=O)NC2CCCCC2C)S(=O)(=O)c2c(C)noc2C)cc1 (stereo unspecified) | inactive: -12.8% | – |
| CC(NC(=O)CCc1ccccc1)C1CC2CCC1C2 (stereo unspecified) | – | inconclusive: 35.5 µM [inhibitor, partial curve, poor fit] |
| COc1ccc(/C(=N\O)OC(=O)/C=C/c2ccco2)cc1 | – | inconclusive: 11.2 µM [inhibitor, full curve, poor fit] |
| Cc1cn2nnc(C(=O)N3CCC(C(=O)Nc4cccc(F)c4)CC3)c2c(=O)[nH]1 | inactive: 30.6% | – |
| O=C(C1CC1)N(Cc1ccc2c(c1)CN(S(=O)(=O)c1cc(F)ccc1F)CCO2)c1ccccc1 | inactive: -1.44% | – |
| COc1ccc(C(=O)N/N=C/c2ccc(OC)c(COc3ccc(F)cc3)c2)cc1 | inactive: -18.3% | – |
| Nn1c(COc2ccccc2F)nnc1SCC(=O)NC1CCCC1 | – | inconclusive: 112 µM [inhibitor, single point] |
| COC(=O)c1sc(S(=O)(=O)Nc2ccc(Br)cc2)c(C(=O)OC)c1C | – | inconclusive: 79.4 µM [inhibitor, single point] |
| O=C1CCC(C(=O)OCC(=O)c2ccccc2)N1 (stereo unspecified) | inactive: 8.2% | – |
| CCCCN(C(=O)C1CSC2(C)CCC(=O)N12)c1c(N)n(CC(C)C)c(=O)[nH]c1=O (stereo unspecified) | – | inconclusive: 112 µM [inhibitor, single point] |
| COc1ccc2[nH]c(=O)c(CN(C(=O)c3ccccn3)c3ccccc3)cc2c1 | inactive: -4.81% | – |
| Fc1ccc(C(=Nc2ccccc2)c2ccc(F)cc2)cc1 | – | inconclusive: 141 µM [inhibitor, single point] |
| O=C(CSc1ncc(-c2ccccc2)o1)Nc1ccc(F)c(F)c1 | – | inconclusive: 28.2 µM [inhibitor, single point] |

| SMILES | activity change, negative = inhibition | Potency |
| --- | --- | --- |
| CCN1CCN(C(c2cccc(F)c2)c2c(O)cc(C)n(Cc3ccco3)c2=O)CC1 (stereo unspecified) | – | inconclusive: 112 µM [inhibitor, single point] |
| O=C(O)CN1C(=O)C(=O)N(Cc2ccccc2F)C1=O | – | inconclusive: 35.5 µM [inhibitor, partial curve, poor fit] |
| O=C1CC(c2ccccc2)Cc2[nH]c(=O)c(-c3nc(-c4ccc(Cl)cc4)cs3)cc21 (stereo unspecified) | – | inconclusive: 141 µM [inhibitor, partial curve, poor fit] |
| CC(=O)c1cccc(NC(c2ccc(F)cc2)c2nnc(-c3ccccc3)o2)c1 (stereo unspecified) | – | inconclusive: 44.7 µM [inhibitor, partial curve, poor fit] |
| COCCN(C(=O)COC(=O)Cc1coc2cc3c(cc12)CCC3)c1c(N)n(Cc2ccccc2)c(=O)[nH]c1=O | – | inconclusive: 44.7 µM [inhibitor, partial curve, poor fit] |
| c1ccc(-c2nnc(N3CCN(c4ccccn4)CC3)c3ccccc23)cc1 | inactive: 27.9% | – |
| O=[N+]([O-])c1cc(C(F)(F)F)cc([N+](=O)[O-])c1NCCNC(=S)Nc1ccc(Cl)c(Cl)c1 | – | inconclusive: 39.8 µM [inhibitor, single point] |
| COc1ccc(COc2ccc3c(=O)c(-c4ccccc4OC)coc3c2)cc1 | – | inconclusive: 2.82 µM [inhibitor, full curve, poor fit] |
| Cc1nc(-c2ccccc2)ncc1C(=O)O | – | inconclusive: 11.2 µM [inhibitor, single point] |
| O=C(O)Cc1cc(Cl)c2c(c1)OCCCO2 | – | inconclusive: 50.1 µM [inhibitor, partial curve, poor fit] |
| S=C(NCc1ccccc1Cl)NC1CCCC1 | – | inconclusive: 39.8 µM [inhibitor, partial curve, poor fit] |
| CCOc1cc(/C=C2/C(=O)N(c3ccccc3)N=C2C)ccc1OC(=O)c1cccs1 | – | inconclusive: 5.62 µM [inhibitor, full curve, poor fit] |
| COc1ccc(-n2c(-c3ccc(C(C)(C)C)cc3)n[nH]c2=S)c(OC)c1 | – | inconclusive: 39.8 µM [inhibitor, partial curve, poor fit] |
| Cc1cc2ccccn2c1C(=O)c1cc([N+](=O)[O-])cc([N+](=O)[O-])c1 | inactive: -7.13% | – |
| O=C(/C=C/c1ccc2ccccc2n1)N1CCN(c2ccccc2)CC1 | – | inconclusive: 31.6 µM [inhibitor, partial curve] |
| CC(C)C(=O)NC(c1ccccc1)c1cc([N+](=O)[O-])c2cccnc2c1O (stereo unspecified) | – | inconclusive: 35.5 µM [inhibitor, partial curve, poor fit] |
| O=C(Nc1ccccc1C(=O)OCc1cc(=O)n2c3c(sc2n1)CCCC3)c1cccc(Cl)c1 | – | inconclusive: 158 µM [inhibitor, partial curve, poor fit] |
| O=C(COC(=O)/C=C/c1ccco1)NCc1ccc(Cl)cc1 | inactive: -1.39% | – |
| CCOc1ccc(C2=CSC3=NCCN23)cc1[N+](=O)[O-] | inactive: 0% | – |
| CN(C)CCNC(=O)C(=O)NCC1OCCN1S(=O)(=O)c1cc(F)ccc1F (stereo unspecified) | – | inconclusive: 31.6 µM [inhibitor, single point] |
| CC(C)c1nc(SCC(=O)Nc2ccc([N+](=O)[O-])cc2Br)n[nH]1 | – | inconclusive: 126 µM [inhibitor, single point] |
| Cc1ccc(-n2nc(C(=O)N3CC[C@](C)(O)C(C)(C)C3)c(O)cc2=O)cc1 | – | inconclusive: 28.2 µM [inhibitor, partial curve, poor fit] |

| SMILES | activity change, negative = inhibition | Potency |
| --- | --- | --- |
| O=C(CSc1nccn1Cc1ccccc1)NCc1ccccc1Cl | – | inconclusive: 56.2 µM [inhibitor, partial curve, poor fit] |
| COc1ccc(CN2CCn3nc(CCC(=O)O)cc3C2)cc1O | – | inconclusive: 15.8 µM [inhibitor, partial curve, poor fit] |
| C[C@@H](CO)NC(=O)c1[nH]cnc1C(=O)Nc1ccc(CNC(=O)OC(C)(C)C)cc1 | – | inconclusive: 35.5 µM [inhibitor, single point] |
| O=C([C@H]1C[C@H](Oc2ccccc2)CN1C(=O)c1ccoc1)N1CCOCC1 | inactive: 16.3% | – |
| O=C(Nc1ccc(S(=O)(=O)N2CCCCC2)cc1)C1CCN(C(=O)c2ccc(F)cc2)CC1 | – | inconclusive: 50.1 µM [inhibitor, full curve, poor fit] |
| Cc1ccc(/C=C/C(=O)c2ccc(-c3ccccc3)cc2)c(C)c1 | – | inconclusive: 35.5 µM [inhibitor, partial curve, poor fit] |
| Nc1c(Cl)ncnc1N/N=C/c1ccc2ccccc2n1 | – | inconclusive: 50.1 µM [inhibitor, partial curve, poor fit] |
| C[C@H]1CN([C@@H](C)CO)C(=O)Cc2cc(NC(=O)CCN3CCOCC3)ccc2O[C@@H]1CN(C)Cc1ccc(Oc2ccccc2)cc1 | – | inconclusive: 100 µM [inhibitor, single point] |
| COC(=O)c1ccc(OC(=O)c2ccc(OC)c(OC)c2)c(OC)c1 | – | inconclusive: 141 µM [inhibitor, single point] |
| N#Cc1c(SCC(=O)Nc2nccs2)nc2c(c1-c1ccco1)CCCC2 | – | inconclusive: 50.1 µM [inhibitor, partial curve, poor fit] |
| O[C@@H]1CO[C@H]2[C@@H]1OC[C@@H]2n1nnnc1-c1ccc(-c2ccccc2)cc1 | inactive: -1.85% [at 176 µM] | – |
| COc1cc2c(cc1NC(C)=O)C(c1ccc(Oc3ccccc3)nc1)CC(=O)N2 (stereo unspecified) | inactive: 9.89% | – |
| COc1ccc(/C=N/NC(=O)c2ccncc2)c(OC)c1 | inactive: 93.8% | – |
| Cc1[nH]c2ccccc2c1/C=C(\C#N)S(=O)(=O)c1ccccc1 | inactive: -17.7% | – |
| CC(=O)N1Cc2ccccc2CC2(CCCN(CC3CCCCC3)C2)C1 (stereo unspecified) | inactive: 6.7% [at 6.33 µM] | – |
| C[N+](C)(C)CCN(Cc1ccc(Cl)cc1)c1ccccn1 | – | active: 15.8 µM |
| O=C(CCC[C@H]1NC[C@@H]2CC1CN(Cc1ccccc1)C2)N1CCCCC1 | – | inconclusive: 14.1 µM [inhibitor, single point] |
| NC(Cc1ccc(C(F)(F)F)cc1)c1csc(NC(=O)Nc2ccccc2)n1 (stereo unspecified) | – | inconclusive: 70.8 µM [inhibitor, partial curve, poor fit] |
| COc1ccc(OC)c(CN2CCN(C(=O)c3cccc4ccccc34)CC2)c1 | – | inconclusive: 0.794 µM [inhibitor, full curve, poor fit] |
| O=C(OCCO)c1c(C2=CCCCC2)oc2c1C(OCCO)CCC2 (stereo unspecified) | – | inconclusive: 35.5 µM [inhibitor, partial curve, poor fit] |
| Cc1ccc(CNC(=O)C(C)N2CCCC(C(F)(F)F)C2)cc1 (stereo unspecified) | inactive: 7.54% | – |
| Cc1ccc(N=Cc2cc(Cl)cc(Cl)c2O)nc1 | – | inconclusive: 22.4 µM [inhibitor, partial curve, poor fit] |

As entered above.
Under activity change, negative = inhibition, O=C(C1CC1)N(Cc1ccc2c(c1)CN(S(=O)(=O)c1cc(F)ccc1F)CCO2)c1ccccc1 is listed with inactive: -1.44%
Under Potency, CC(NC(=O)CCc1ccccc1)C1CC2CCC1C2 (stereo unspecified) is listed with inconclusive: 35.5 µM [inhibitor, partial curve, poor fit]
Under Potency, N#Cc1c(SCC(=O)Nc2nccs2)nc2c(c1-c1ccco1)CCCC2 is listed with inconclusive: 50.1 µM [inhibitor, partial curve, poor fit]
